Values from PubChem BioAssay AID1259288 (Sanger Institute, 2017)
The whole screen tested 160 reagents; below is a part drawn at random. Of all reagents, 7 (4.4%) got an active call. 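Active calls arise only from BYL719 or trametinib; no cetuximab synergy went beyond 0.10; drug doses chosen to have mild effect alone.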 Reagents against one gene are numbered here. Further read-outs or replicates are left out here. Not stated in the record: the amount of reagent, the time to read-out.

- Screen: 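Follow up primary screen gene-drug synthetic lethal pairs using separate siRNA duplexes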 (follow-up of hits with single siRNAs)
- Cell system: HT29 human colorectal cancer cells
- Knock-down reagent: single siRNA against human genes
- Challenge: anchor drugs BYL719 (1 µM), cetuximab (5 µg/ml) or trametinib (10 nM), or DMSO vehicle; each drug dosed to cause only modest loss of viability on its own
- Read-out: 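Mean viability across replicates relative to non-targeting pool 2, and a synergy score setting the joint siRNA-plus-drug effect against each agent's effect alone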
- Direction: synergy score with BYL719 and synergy score with trametinib and synergy score with cetuximab: higher = stronger combined killing than expected from each alone
- Rule for the call: 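a gene counts as active if its synergy score is above 0.10 for one or more anchor drugs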

| Gene | reagent | synergy score with BYL719 | synergy score with trametinib | synergy score with cetuximab | Outcome |
| --- | --- | --- | --- | --- | --- |
| ACVR1 | 1 | -0.219 | -0.0927 | -0.0455 | inactive |
| ACVR1 | 2 | 0.0328 | 0.0221 | -0.107 | inactive |
| ACVR1 | 3 | -0.134 | -0.00194 | 0 | inactive |
| ACVR1 | 4 | -0.108 | 0.0114 | 0.0019 | inactive |
| PFKFB3 | 1 | -0.00636 | -0.0214 | -0.0388 | inactive |
| PFKFB3 | 2 | -0.0436 | 0.0577 | -0.122 | inactive |
| PFKFB3 | 3 | -0.0867 | -0.000402 | -0.0921 | inactive |
| PFKFB3 | 4 | -0.097 | 0.0323 | -0.15 | inactive |
| HSPB8 | 1 | -0.187 | 0.0662 | -0.179 | inactive |
| HSPB8 | 2 | -0.288 | -0.0375 | -0.0223 | inactive |
| HSPB8 | 3 | -0.232 | -0.118 | -0.0726 | inactive |
| HSPB8 | 4 | -0.321 | -0.0501 | -0.171 | inactive |
| EPHA6 | 1 | -0.184 | 0.0367 | -0.0849 | inactive |
| EPHA6 | 2 | -0.0724 | -0.0101 | -0.266 | inactive |
| EPHA6 | 3 | -0.0949 | -0.0597 | -0.165 | inactive |
| EPHA6 | 4 | -0.215 | -0.104 | -0.194 | inactive |
| RPS6KA4 | 1 | -0.0729 | 0.0315 | -0.114 | inactive |
| RPS6KA4 | 2 | 0.0487 | 0.0023 | -0.173 | inactive |
| RPS6KA4 | 3 | -0.0232 | -0.12 | -0.0627 | inactive |
| RPS6KA4 | 4 | -0.159 | 0.0327 | -0.31 | inactive |
| MARK3 | 1 | -0.00167 | -0.0221 | -0.0863 | inactive |
| MARK3 | 2 | -0.231 | -0.0655 | -0.05 | inactive |
| MARK3 | 3 | -0.0921 | -0.116 | -0.00253 | inactive |
| MARK3 | 4 | -0.0331 | 0.0443 | -0.0961 | inactive |
| CRIM1 | 1 | 0.0292 | 0.0408 | -0.0519 | inactive |
| CRIM1 | 2 | 0.0812 | 0.00505 | -0.045 | inactive |
| CRIM1 | 3 | 0.14 | 0.0543 | -0.0403 | active |
| CRIM1 | 4 | -0.00513 | 0.0551 | 0 | inactive |

A portion from the list above:
| Gene | reagent | synergy score with BYL719 | synergy score with trametinib | synergy score with cetuximab | Outcome |
| --- | --- | --- | --- | --- | --- |
| HSPB8 | 3 | -0.232 | -0.118 | -0.0726 | inactive |
| HSPB8 | 4 | -0.321 | -0.0501 | -0.171 | inactive |
| EPHA6 | 1 | -0.184 | 0.0367 | -0.0849 | inactive |
| EPHA6 | 2 | -0.0724 | -0.0101 | -0.266 | inactive |

Additional results follow.
| Gene | reagent | synergy score with BYL719 | synergy score with trametinib | synergy score with cetuximab | Outcome |
| --- | --- | --- | --- | --- | --- |
| PIM1 | 1 | 0.0405 | 0.0744 | -0.141 | inactive |
| PIM1 | 2 | -0.0106 | 0.00741 | -0.0365 | inactive |
| PIM1 | 3 | -0.127 | -0.054 | -0.0525 | inactive |
| PIM1 | 4 | 0.0167 | 0.0239 | 0.0492 | inactive |
| GUCY2D | 1 | -0.0907 | -0.0248 | -0.0502 | inactive |
| GUCY2D | 2 | -0.0268 | 0.0272 | -0.132 | inactive |
| GUCY2D | 3 | -0.222 | -0.0925 | -0.125 | inactive |
| GUCY2D | 4 | -0.255 | -0.0138 | 0 | inactive |
| GRK5 | 1 | -0.222 | -0.0649 | -0.101 | inactive |
| GRK5 | 2 | -0.109 | -0.0743 | 0 | inactive |
| GRK5 | 3 | -0.0668 | 0.0386 | -0.173 | inactive |
| GRK5 | 4 | -0.129 | 0.00412 | 0 | inactive |
| PRAG1 | 1 | -0.0342 | -0.0211 | -0.15 | inactive |
| PRAG1 | 2 | 0.0355 | 0.0707 | -0.169 | inactive |
| PRAG1 | 3 | 0.0136 | -0.063 | -0.0404 | inactive |
| PRAG1 | 4 | 0.0302 | -0.0457 | -0.0267 | inactive |
| CDKN2D | 1 | -0.29 | -0.0297 | -0.16 | inactive |
| CDKN2D | 2 | -0.293 | -0.0383 | -0.222 | inactive |
| CDKN2D | 3 | -0.228 | -0.0616 | -0.123 | inactive |
| CDKN2D | 4 | -0.124 | -0.0101 | -0.185 | inactive |
| IKBKB | 1 | -0.174 | -0.145 | 0.00929 | inactive |
| IKBKB | 2 | -0.00382 | 0.00351 | 0.0219 | inactive |
| IKBKB | 3 | 0.0134 | 0.0195 | -0.0038 | inactive |
| IKBKB | 4 | -0.0301 | 0.128 | -0.0631 | active |
| MAPKAPK2 | 1 | 0.185 | -0.000595 | 0.0467 | active |
| MAPKAPK2 | 2 | 0.0907 | -0.137 | -0.0468 | inactive |
| MAPKAPK2 | 3 | -0.0186 | -0.0397 | 0.097 | inactive |
| MAPKAPK2 | 4 | -0.0363 | -0.0321 | -0.0704 | inactive |
| MAPK4 | 1 | -0.0649 | -0.122 | -0.121 | inactive |
| MAPK4 | 2 | -0.0776 | -0.0223 | -0.0839 | inactive |
| MAPK4 | 3 | -0.000686 | 0.0546 | -0.00483 | inactive |
| MAPK4 | 4 | -0.0334 | -0.0334 | 0.0665 | inactive |
